Reference: paper PMC10379624
No constants are given. Whether binding was seen depends on the method and setting. Binding seen in cells or lysates may run through a third protein. Some binding calls cover weakened binding; strength is not graded here. Tags and fused reporters may be left off the sequences shown.

The chains behind the UniProt entries cited, without tags or fusion partners.
UniProt P13864: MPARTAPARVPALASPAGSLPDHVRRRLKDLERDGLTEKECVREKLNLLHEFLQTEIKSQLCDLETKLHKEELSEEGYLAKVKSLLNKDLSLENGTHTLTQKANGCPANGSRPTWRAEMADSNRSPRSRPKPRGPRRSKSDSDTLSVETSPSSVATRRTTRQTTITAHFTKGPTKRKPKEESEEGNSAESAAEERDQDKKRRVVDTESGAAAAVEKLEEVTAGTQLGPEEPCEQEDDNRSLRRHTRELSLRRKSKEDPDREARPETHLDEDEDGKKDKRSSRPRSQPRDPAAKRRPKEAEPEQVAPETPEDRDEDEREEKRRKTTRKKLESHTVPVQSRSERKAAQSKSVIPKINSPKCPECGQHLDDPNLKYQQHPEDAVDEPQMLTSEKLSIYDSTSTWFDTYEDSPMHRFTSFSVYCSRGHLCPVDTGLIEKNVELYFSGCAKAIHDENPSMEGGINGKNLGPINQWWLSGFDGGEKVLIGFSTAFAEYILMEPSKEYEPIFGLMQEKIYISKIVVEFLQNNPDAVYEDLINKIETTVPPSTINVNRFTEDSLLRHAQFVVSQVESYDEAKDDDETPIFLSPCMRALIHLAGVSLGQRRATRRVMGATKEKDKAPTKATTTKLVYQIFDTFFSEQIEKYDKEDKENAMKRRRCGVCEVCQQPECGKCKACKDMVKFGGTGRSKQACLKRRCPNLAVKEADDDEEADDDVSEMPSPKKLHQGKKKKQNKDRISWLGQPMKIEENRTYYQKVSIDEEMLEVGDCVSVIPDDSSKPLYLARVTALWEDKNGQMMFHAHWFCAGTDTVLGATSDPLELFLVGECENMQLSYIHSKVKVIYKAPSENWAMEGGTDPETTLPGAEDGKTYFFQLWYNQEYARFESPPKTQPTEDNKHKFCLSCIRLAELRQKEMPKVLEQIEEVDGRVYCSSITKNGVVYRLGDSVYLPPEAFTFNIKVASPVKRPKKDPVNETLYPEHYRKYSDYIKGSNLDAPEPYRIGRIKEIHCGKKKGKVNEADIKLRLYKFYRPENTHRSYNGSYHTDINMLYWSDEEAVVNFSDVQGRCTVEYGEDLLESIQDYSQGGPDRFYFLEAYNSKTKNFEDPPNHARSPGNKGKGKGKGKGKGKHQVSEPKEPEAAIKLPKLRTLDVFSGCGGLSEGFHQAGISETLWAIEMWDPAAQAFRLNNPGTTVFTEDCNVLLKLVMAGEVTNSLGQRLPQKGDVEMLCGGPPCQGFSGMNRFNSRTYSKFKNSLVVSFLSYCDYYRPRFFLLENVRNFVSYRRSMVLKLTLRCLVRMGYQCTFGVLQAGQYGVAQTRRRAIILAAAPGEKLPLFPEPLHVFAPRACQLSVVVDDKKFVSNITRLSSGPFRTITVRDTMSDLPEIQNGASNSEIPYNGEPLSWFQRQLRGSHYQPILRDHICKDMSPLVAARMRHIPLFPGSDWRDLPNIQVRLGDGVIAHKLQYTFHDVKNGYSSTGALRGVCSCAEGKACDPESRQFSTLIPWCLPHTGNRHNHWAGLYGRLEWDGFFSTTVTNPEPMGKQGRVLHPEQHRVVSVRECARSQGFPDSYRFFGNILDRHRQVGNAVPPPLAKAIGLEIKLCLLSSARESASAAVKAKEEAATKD
UniProt P83917: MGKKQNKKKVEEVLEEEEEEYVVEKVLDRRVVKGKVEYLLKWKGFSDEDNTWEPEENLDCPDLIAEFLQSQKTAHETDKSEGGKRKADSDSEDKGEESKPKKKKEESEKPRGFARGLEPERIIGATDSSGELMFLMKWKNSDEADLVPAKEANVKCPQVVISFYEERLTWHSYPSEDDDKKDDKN
UniProt Q80Y84: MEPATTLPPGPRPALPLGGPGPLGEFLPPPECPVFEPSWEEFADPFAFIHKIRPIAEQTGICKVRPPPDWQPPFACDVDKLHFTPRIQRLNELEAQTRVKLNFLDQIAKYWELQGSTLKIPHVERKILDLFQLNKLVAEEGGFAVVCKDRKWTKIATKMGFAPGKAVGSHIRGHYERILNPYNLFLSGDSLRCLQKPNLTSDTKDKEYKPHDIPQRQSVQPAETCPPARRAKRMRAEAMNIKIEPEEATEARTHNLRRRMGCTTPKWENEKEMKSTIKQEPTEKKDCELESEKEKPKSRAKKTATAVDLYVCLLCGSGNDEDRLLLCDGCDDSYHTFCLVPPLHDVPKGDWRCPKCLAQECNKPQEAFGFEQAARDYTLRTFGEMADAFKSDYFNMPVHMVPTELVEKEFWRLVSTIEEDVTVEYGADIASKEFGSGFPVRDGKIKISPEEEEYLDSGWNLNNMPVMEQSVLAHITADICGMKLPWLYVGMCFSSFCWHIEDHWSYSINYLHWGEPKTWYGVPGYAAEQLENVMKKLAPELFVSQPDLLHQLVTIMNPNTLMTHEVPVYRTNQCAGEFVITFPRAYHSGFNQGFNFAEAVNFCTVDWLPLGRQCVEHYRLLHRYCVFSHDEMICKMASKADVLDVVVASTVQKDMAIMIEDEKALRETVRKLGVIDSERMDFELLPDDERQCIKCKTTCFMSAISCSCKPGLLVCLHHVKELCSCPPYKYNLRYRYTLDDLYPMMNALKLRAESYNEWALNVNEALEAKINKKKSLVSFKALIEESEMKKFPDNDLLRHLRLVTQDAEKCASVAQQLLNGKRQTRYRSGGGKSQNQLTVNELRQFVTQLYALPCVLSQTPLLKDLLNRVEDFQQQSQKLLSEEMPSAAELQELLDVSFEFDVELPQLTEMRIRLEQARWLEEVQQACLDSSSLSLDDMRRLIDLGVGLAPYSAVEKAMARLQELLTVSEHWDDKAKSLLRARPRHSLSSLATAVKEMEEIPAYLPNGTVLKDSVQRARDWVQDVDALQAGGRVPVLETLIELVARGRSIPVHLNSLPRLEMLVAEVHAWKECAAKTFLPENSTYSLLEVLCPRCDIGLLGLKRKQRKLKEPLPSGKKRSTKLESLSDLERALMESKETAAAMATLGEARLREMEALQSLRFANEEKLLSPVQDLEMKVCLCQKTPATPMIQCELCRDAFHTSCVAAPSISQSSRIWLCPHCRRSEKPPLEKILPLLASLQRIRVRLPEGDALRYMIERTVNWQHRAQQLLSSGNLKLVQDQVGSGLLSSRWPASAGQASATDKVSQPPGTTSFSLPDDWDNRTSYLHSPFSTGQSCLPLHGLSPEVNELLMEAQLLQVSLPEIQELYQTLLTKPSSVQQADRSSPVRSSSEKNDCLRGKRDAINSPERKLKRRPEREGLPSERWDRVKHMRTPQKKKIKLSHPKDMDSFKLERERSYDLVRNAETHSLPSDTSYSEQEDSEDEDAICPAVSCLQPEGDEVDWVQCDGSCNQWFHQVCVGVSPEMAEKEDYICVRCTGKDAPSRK
UniProt Q3TKT4: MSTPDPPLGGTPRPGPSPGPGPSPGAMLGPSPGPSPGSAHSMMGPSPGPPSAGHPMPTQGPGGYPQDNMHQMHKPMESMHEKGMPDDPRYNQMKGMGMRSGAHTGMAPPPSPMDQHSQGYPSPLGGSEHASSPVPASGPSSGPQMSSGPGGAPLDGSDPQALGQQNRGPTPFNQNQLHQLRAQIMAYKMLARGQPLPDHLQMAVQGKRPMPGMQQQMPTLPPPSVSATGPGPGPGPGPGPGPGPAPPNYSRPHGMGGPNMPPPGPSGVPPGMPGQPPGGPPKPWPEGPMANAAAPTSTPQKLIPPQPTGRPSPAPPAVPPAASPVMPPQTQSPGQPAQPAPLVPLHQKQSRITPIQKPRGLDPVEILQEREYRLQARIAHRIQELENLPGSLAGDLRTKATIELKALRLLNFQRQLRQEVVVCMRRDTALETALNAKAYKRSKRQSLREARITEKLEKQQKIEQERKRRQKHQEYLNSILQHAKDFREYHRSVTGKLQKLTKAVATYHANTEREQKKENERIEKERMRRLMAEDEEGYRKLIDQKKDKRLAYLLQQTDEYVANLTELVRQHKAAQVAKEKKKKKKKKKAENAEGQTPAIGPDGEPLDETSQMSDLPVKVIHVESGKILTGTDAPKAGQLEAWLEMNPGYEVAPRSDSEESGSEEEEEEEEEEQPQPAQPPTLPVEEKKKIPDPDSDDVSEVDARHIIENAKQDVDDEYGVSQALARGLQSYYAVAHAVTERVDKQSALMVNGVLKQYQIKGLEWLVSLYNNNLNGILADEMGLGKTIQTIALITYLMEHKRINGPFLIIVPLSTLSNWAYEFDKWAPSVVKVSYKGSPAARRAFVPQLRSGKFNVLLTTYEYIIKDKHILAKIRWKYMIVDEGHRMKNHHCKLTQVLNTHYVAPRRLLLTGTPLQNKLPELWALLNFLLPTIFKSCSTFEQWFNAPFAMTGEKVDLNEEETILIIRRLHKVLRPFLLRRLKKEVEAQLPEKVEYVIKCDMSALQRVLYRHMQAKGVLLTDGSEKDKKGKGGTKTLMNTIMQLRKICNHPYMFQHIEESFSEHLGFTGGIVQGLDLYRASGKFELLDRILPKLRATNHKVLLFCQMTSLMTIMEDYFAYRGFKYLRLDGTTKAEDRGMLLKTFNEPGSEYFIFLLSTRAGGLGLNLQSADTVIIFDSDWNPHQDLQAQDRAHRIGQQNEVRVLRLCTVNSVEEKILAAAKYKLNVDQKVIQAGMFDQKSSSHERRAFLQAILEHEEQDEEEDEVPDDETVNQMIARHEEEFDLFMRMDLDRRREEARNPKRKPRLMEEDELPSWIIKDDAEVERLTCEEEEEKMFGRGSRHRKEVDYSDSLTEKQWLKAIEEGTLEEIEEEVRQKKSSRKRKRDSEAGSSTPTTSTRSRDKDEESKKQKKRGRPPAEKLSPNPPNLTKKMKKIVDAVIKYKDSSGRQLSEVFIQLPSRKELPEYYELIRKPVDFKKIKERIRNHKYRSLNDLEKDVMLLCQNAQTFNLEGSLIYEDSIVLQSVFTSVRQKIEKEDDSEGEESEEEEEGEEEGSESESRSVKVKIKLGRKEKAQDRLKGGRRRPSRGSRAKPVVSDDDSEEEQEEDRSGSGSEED

T1: Avidin-tagged ZFP296 (Zfp296-Bio) (mouse) (UniProt E9Q6W4)
T1 sequence: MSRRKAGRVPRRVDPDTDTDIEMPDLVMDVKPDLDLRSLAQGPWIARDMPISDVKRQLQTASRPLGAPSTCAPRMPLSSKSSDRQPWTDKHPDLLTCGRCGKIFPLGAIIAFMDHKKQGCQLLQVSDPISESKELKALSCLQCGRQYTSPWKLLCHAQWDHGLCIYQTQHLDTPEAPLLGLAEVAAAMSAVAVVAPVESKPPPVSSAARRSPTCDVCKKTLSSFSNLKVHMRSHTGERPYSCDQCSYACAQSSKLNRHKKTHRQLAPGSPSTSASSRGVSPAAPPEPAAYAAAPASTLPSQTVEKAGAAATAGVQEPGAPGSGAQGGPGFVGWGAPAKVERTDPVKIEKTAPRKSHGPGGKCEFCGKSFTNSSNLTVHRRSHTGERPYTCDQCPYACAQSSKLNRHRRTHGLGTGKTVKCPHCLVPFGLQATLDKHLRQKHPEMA

T2: Myc-tagged ZFP296 (zinc finger protein 296), full length (mouse) (UniProt E9Q6W4)
T2 sequence: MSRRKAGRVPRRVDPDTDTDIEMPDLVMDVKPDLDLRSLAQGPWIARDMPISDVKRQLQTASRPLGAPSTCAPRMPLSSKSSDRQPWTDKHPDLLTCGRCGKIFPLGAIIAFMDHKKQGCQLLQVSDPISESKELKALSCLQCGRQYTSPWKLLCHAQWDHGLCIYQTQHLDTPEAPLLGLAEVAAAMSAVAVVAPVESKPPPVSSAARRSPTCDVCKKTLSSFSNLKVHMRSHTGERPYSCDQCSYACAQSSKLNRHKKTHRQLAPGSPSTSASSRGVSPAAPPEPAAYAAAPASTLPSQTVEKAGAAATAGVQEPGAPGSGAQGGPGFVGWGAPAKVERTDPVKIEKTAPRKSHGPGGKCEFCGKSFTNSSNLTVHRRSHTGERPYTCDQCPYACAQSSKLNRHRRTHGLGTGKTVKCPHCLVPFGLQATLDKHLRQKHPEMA


Assays:
[1] = target: T1, Avidin-tagged ZFP296 (Zfp296-Bio) (mouse); test: co-IP; Avidin-tagged ZFP296 (Zfp296-Bio) co-expressed with the tagged partner in HEK-293T cells; whole-cell extract; capture on Dynabeads MyOne Streptavidin C1; Western blot; called co-immunoprecipitation by the paper
[2] = target: T2, Myc-tagged ZFP296 (zinc finger protein 296), full length (mouse); test: co-IP; Myc-tagged ZFP296 co-expressed with the tagged partner in HEK-293T cells; whole-cell extract in IP Lysis Buffer; Myc mAb overnight at 4 °C, Protein A/G agarose; control IgG; Western blot

Molecule	binding [1]	binding [2]
Flag-tagged DNMT1 (DNA methyltransferase 1) (from UniProt P13864 1-1620)	binds	
HA-tagged HP1β (chromobox 1) (from UniProt P83917 1-185)	binds	
Flag-tagged KDM5B (lysine demethylase 5B) (from UniProt Q80Y84 1-1544)		binds

The remaining lines, values ahead:

binding [1]	binding [2]	Molecule
	binds	HA-tagged SMARCA4 (SWI/SNF-related, matrix-associated, actin-dependent regulator of chromatin, subfamily a, member 4) (from UniProt Q3TKT4 1-1613)
binds		HA-tagged UHRF1 (ubiquitin-like with PHD and ring finger domains 1) (protein, UniProt Q8VDF2 1-782) MWIQVRTMDGKETHTVNSLSRLTKVQELRKKIEEVFHVEPQLQRLFYRGKQMEDGHTLFDYDVRLNDTIQLLVRQSLALPLSTKERDSELSDSDSGYGVGHSESDKSSTHGEGAAEADDKTVWEDTDLGLYKVNEYVDVRDNIFGAWFEAQVVQVQKRALSEDEPCSSSAVKTSEDDIMYHVKYDDYPEHGVDIVKAKNVRARARTVIPWENLEVGQVVMANYNVDYPRKRGFWYDVEICRKRQTRTARELYGNIRLLNDSQLNNCRIMFVDEVLMIELPKERRPLIASPSQPPPALRNTGKSGPSCRFCKDDENKPCRKCACHVCGGREAPEKQLLCDECDMAFHLYCLKPPLTSVPPEPEWYCPSCRTDSSEVVQAGEKLKESKKKAKMASATSSSRRDWGKGMACVGRTTECTIVPANHFGPIPGVPVGTMWRFRVQVSESGVHRPHVAGIHGRSNDGAYSLVLAGGYEDDVDNGNYFTYTGSGGRDLSGNKRTAGQSSDQKLTNNNRALALNCHSPINEKGAEAEDWRQGKPVRVVRNMKGGKHSKYAPAEGNRYDGIYKVVKYWPERGKSGFLVWRYLLRRDDTEPEPWTREGKDRTRQLGLTMQYPEGYLEALANKEKSRKRPAKALEQGPSSSKTGKSKQKSTGPTLSSPRASKKSKLEPYTLSEQQANLIKEDKGNAKLWDDVLTSLQDGPYQIFLSKVKEAFQCICCQELVFRPVTTVCQHNVCKDCLDRSFRAQVFSCPACRFELDHSSPTRVNQPLQTILNQLFPGYGSGR
